Earlier results in paper PMC7345279 (Antibiotics, 2020).

Tested on: plasma proteins
Conditions: cited from earlier work

For CN1C(=O)CN=C(c2ccccc2)c2cc(Cl)ccc21 [diazepam], which “bound (plasma proteins)” value is on record?
Its value is “around 99%”.
